In US20120315310A1, “BONE TISSUE IMPLANT COMPRISING LITHIUM IONS” (Astra Tech AB, priority 2007, published 2012):
For at least one compound, name, drawing or mass did not settle the structure.

What was measured:
MG-63 cells [1] = assay: Proliferation of MG-63 cells on cell treated polystyrene with lithium (NucleoCounter); type: cell-based, human
MG-63 cells [2] = assay: MG-63 proliferation on reference surfaces with lithium; type: cell-based, human; conditions: final concentration of 5 mM lithium, 7 days

[Li] [lithium, LiNO3] was tested, and the “proliferation of MG-63 cells” value (MG-63 cells [1]; 5, 3 and 1 mM lithium, 3, 7 and 14 days, vs untreated cells) was “increased proliferation”, the “time of highest detected cell number” value (MG-63 cells [1]; culture with lithium, time points 3, 7 and 14 days) was 7 days and the “proliferation of MG-63 cells on reference surface” value (MG-63 cells [2]) was “modest increased proliferation”.
